# Results from PubChem BioAssay AID2549 (National Center for Advancing Translational Sciences (NCATS), 2010).
# The chains behind the UniProt entries cited, without tags or fusion partners. Where a name states a change or a piece, a line headed by the entry shows the natural chain unless it says otherwise.
# UniProt P46063: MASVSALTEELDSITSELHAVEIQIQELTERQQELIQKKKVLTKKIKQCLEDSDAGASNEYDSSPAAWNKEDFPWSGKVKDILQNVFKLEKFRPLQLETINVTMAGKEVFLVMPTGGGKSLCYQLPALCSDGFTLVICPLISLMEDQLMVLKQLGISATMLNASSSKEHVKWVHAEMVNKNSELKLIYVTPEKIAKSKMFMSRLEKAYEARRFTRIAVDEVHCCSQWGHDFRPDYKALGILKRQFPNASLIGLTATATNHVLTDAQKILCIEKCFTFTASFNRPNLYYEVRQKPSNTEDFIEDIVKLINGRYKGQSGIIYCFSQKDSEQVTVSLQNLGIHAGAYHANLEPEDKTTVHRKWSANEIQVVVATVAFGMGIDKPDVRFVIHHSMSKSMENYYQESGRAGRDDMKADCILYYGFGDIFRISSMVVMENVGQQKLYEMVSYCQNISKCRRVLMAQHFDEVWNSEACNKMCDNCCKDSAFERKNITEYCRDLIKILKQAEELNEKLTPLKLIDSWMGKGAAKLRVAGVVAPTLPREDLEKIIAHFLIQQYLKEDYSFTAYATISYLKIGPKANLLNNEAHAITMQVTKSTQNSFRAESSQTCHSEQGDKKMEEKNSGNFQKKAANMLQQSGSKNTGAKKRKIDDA
# Hit rate of the full screen: of about 240,000 compounds, about 1,300 (0.54%) were called active. Inconclusive means that the source gave no clear call. Such entries were picked first, then a sample of the others. Calls come from the whole dose curve; as a rule, active = well fitted inhibition curve with a large enough effect; inconclusive = small, poorly fitted or top-dose-only effect; inactive = flat fitted curve, though single readings scatter. Potencies of inconclusive entries are doubtful fits and often do not repeat.
# Target: ATP-dependent DNA helicase Q1 (Homo sapiens) (UniProt P46063)
# Assay: qHTS Assay for Inhibitors of RecQ-Like Dna Helicase 1 (RECQ1); note: nearly all actives have a fitted effect of over 30% in size;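 for activity, negative = inhibition: plate controls were vehicle for no effect and no enzyme for full effect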
# Details: RECQ1 DNA unwinding, red fluorescence kinetic read; activity, negative = inhibition: at 57.3 µM (top of the series); series mostly up to 57.3 µM
# In short: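 RECQ1T1 50 nM; forked duplex (20 bp + 30-nt ss tails) 200 nM, ATP 2 mM final; pH 8.0, 2 mM MgCl2, 2.5 ug/ml poly(dI-dC); 15 min compound preincubation; discontinuous kinetic read over 2 h at RT.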
# Potency is the fitted concentration of half-maximal effect.
Compound,Potency,"activity, negative = inhibition"
COc1ccccc1C/C(N)=N/OC(=O)/C=C/c1ccccc1,"inconclusive: 1.58 µM [inhibitor, full curve]",
Cc1cc(CN2CCN(CCC#N)CC2)c(O)c(C2(C)CCCCC2)c1,,inconclusive: -38.2% [inhibitor]
CC1N(C)c2cc(NC(=O)c3ccco3)ccc2C1(C)C (configuration not stated),active: 25.1 µM,
COc1ccc(C(=O)NC(=S)NCC2CCCO2)cc1 (configuration not stated),"inconclusive: 0.891 µM [inhibitor, single point]",
COc1ccc(-n2nc3c(=O)[nH][nH]c3cc2=O)cc1,inactive,
O=C(Cc1csc(N2CCOCC2)n1)N/N=C/c1ccc(O)c(O)c1O,"inconclusive: 3.16 µM [inhibitor, full curve, poor fit]",
O=C(CCN1C(=O)/C(=C/c2cccs2)SC1=S)NNC(=O)c1cccc(O)c1,"inconclusive: 39.8 µM [inhibitor, single point]",
CCn1cc(S(=O)(=O)CC(=O)Nc2ccc(C)cc2)c2ccccc21,"inconclusive: 0.199 µM [inhibitor, full curve, poor fit]",
O=C1NN(c2ccccc2)C(=O)/C1=C/c1ccc(-c2ccc(Cl)c(C(=O)O)c2)o1,"inconclusive: 35.5 µM [inhibitor, single point]",
C[C@H]1[C@H](C)CC[C@]2(C(=O)O)CC[C@]3(C)C(=CC[C@@H]4[C@@]5(C)CC[C@H](O)C(C)(C)[C@@H]5CC[C@]43C)[C@H]12,"inconclusive: 0.158 µM [inhibitor, full curve, poor fit]",
Cc1cc(C(=O)CSc2nnc(-c3ccccc3)n2-c2ccccc2)c(C)n1-c1ncn[nH]1,active: 35.5 µM,
O=C(O)c1ccc(NS(=O)(=O)c2ccc3c(c2)C2C=CCC2C(c2ccccc2F)N3)cc1 (configuration not stated),"inconclusive: 39.8 µM [inhibitor, single point]",
CC1=NN2C(=N)/C(=C\c3cc(C)n(-c4ccccc4)c3C)C(=O)N=C2S1,inactive,
C[C@H](C(=O)O)c1cccc(C(=O)c2ccccc2)c1,"inconclusive: 31.6 µM [inhibitor, single point]",
Cc1ccc(-n2nnc(-c3nccs3)n2)cc1,active: 0.891 µM,
Fc1ccc(Nc2ccnc(-c3ccc4c(c3)OCO4)n2)cc1,inactive,
Oc1cc2c(cc1O)C1c3ccc(O)c(O)c3OCC1(O)C2 (configuration not stated),inactive,
CCN(CCO)c1nc(SC)nc2c1sc1nc(-c3ccco3)c3c(c12)CCC3,inactive,
OCCNc1nc(Nc2ccccc2)nc(Nc2ccccc2)n1,"inconclusive: 14.1 µM [inhibitor, partial curve, poor fit]",
Cc1ccc(-c2cc(C3C4C=CCCC4(C)C(=O)N3Cc3ccccc3)ccc2F)cc1 (configuration not stated),inactive,
Cc1ccccc1N1C(S)=C(C#N)C(=O)NC1c1ccco1 (configuration not stated),active: 25.1 µM,
O=C(Cc1nc(=O)c2ccccc2s1)Nc1ccccc1,"inconclusive: 6.31 µM [inhibitor, single point]",
CCO[C@H]1OC(C(=O)N2CCN(Cc3ccc4c(c3)OCO4)CC2)=C[C@@H](c2cn(C(C)=O)c3ccccc23)[C@@H]1CCCO,active: 35.5 µM,

Compound,Potency,"activity, negative = inhibition"
Cc1c(NC(=O)c2ccc(S(=O)(=O)N(C)c3ccccc3)cc2)c(=O)n(-c2ccccc2)n1C,"inconclusive: 3.98 µM [inhibitor, partial curve]",
COc1cc(/C=C2\SC(=S)N(C(Cc3ccccc3)C(=O)O)C2=O)ccc1O (configuration not stated),active: 25.1 µM,
CSc1ccccc1NC(=O)COC(=O)c1ccccc1Cc1ccccc1,active: 25.1 µM,
CCOC(=O)c1cc(-c2ccccc2)sc1NC(=O)CN1C(=O)NC(CC)(c2ccc(F)cc2)C1=O (configuration not stated),active: 31.6 µM,
O=c1[nH]c(Nc2ccc(F)cc2)cc2ccccc12,"inconclusive: 25.1 µM [inhibitor, single point]",
Cc1ccc(SCC(=O)c2ccc(CC(=O)O)s2)cc1,active: 25.1 µM,
CC[C@@H]1C(c2ccc(F)cc2)=NN(c2ccc(Br)cc2)[C@H]1C(=O)N1CCOC1=O,"inconclusive: 31.6 µM [inhibitor, single point]",
CC(C)(C)/C(O)=C/c1nc2cc(Cl)ccc2oc1=O,inactive,
O=C(O)c1cccc(-c2ccc(/C=c3/sc4nc5ccccc5n4c3=O)o2)c1,"inconclusive: 28.2 µM [inhibitor, single point]",
O=C1SC(SCc2ccccc2)=N/C1=C\c1ccco1,"inconclusive: 31.6 µM [inhibitor, single point]",
O=S(=O)(Nc1nc2ccccc2nc1Nc1cccc(S(=O)(=O)N2CCCCC2)c1)c1ccccc1,"inconclusive: 39.8 µM [inhibitor, single point]",
O=C(/C=C/c1ccc(Cl)c([N+](=O)[O-])c1)Nc1ccc(N2CCCC2)cc1,"inconclusive: 39.8 µM [inhibitor, single point]",
COC(=O)C1=C(C)N=C2SCCC(=O)N2C1/C=C/c1ccccc1 (configuration not stated),"inconclusive: 39.8 µM [inhibitor, single point]",
CCc1ccccc1N(C)S(=O)(=O)c1ccc2[nH]cc(C(=O)O)c(=O)c2c1,"inconclusive: 0.158 µM [inhibitor, full curve, poor fit]",
Cc1cc(-c2csc(NC(=O)c3ccc(=O)n(C)n3)n2)c(C)n1CC1CCCO1 (configuration not stated),"inconclusive: 39.8 µM [inhibitor, single point]",
CCCCC(CC)COC(=O)CC(C(=O)OCC(CC)CCCC)S(=O)(=O)O (configuration not stated),"inconclusive: 39.8 µM [inhibitor, single point]",
O=C(NN=C1c2ccccc2-c2ccccc21)c1ccccc1,"inconclusive: 39.8 µM [inhibitor, single point]",
Cc1sc2ncnc(N3CCC(C(=O)Oc4cccc(Cl)c4Cl)CC3)c2c1C,"inconclusive: 1.26 µM [inhibitor, full curve]",
O=C(O)c1cc(-c2ccco2)nc2cc3ccccc3cc12,active: 28.2 µM,
CCN1/C(=C/c2ccc3cccc(C)c3[n+]2CC)Sc2ccccc21,inactive,
Cc1ccc(S(=O)(=O)N2CCCCC2)cc1C(=O)Nc1cccnc1,"inconclusive: 35.5 µM [inhibitor, single point]",
COCc1cc(C)nc2sc3c(=O)n(Cc4ccco4)nnc3c12,"inconclusive: 39.8 µM [inhibitor, single point]",
Clc1ccc(NNc2ccnc3cc(Cl)ccc23)cc1,inactive,

Compound,Potency,"activity, negative = inhibition"
Cc1ccc(Oc2nc(-c3ccccn3)nc3ccccc23)cc1,"inconclusive: 39.8 µM [inhibitor, single point]",
O=C(CNS(=O)(=O)c1ccc(Br)cc1)OCc1cc(=O)n2cc(Br)ccc2n1,"inconclusive: 31.6 µM [inhibitor, single point]",
Cc1nn(Cc2ccc(F)cc2)c(C)c1NC(=O)c1cc(-c2ccco2)on1,"inconclusive: 35.5 µM [inhibitor, single point]",
O=C(C1COc2ccccc2O1)N1CCc2ccccc21 (configuration not stated),"inconclusive: 28.2 µM [inhibitor, single point]",
COc1ccc(-n2c(-c3cnccn3)n[nH]c2=S)cc1,"inconclusive: 0.251 µM [inhibitor, full curve, poor fit]",
Cc1cc(C)n2nc(C(=O)Nc3nnc(C4CC4)s3)nc2n1,"inconclusive: 0.708 µM [inhibitor, full curve, poor fit]",
N#Cc1c(-c2ccco2)nc(SCC(=O)Nc2cccc(Cl)c2)[nH]c1=O,inactive,
CC1=N/C(=C/c2ccco2)C(=O)O1,"inconclusive: 35.5 µM [inhibitor, single point]",
CC1=CC(C#N)(C#N)C(C#N)(C#N)C(c2ccccc2)N1 (configuration not stated),inactive,
COCCN(C(=O)CSc1nnc(C)n1Cc1ccccc1)c1c(N)n(CC(C)C)c(=O)[nH]c1=O,"inconclusive: 39.8 µM [inhibitor, single point]",
CCOC(=O)Cc1nn(CC)c(=O)c2ccccc12,"inconclusive: 31.6 µM [inhibitor, single point]",
O=C(CSC(=S)N1CCCCC1)Nc1ncc2c(n1)CC(c1ccco1)CC2=O (configuration not stated),"inconclusive: 8.91 µM [inhibitor, single point]",
O=C(Cn1cnc2scc(-c3cccc([N+](=O)[O-])c3)c2c1=O)NCc1ccco1,active: 25.1 µM,
CCCCC(C)/C=C(C)/C=C(\C)C(=O)NC1=CC(O)(/C=C/C=C/C=C/C(=O)NC2=C(O)CCC2=O)C2OC2C1=O (configuration not stated),"inconclusive: 35.5 µM [inhibitor, single point]",
COc1ccc(NC(=O)CCCN2C(=O)/C(=C\c3ccco3)SC2=S)cc1,"inconclusive: 35.5 µM [inhibitor, single point]",
Cc1cccc(/C=C/C(=O)c2cc(Br)ccc(=O)c2O)c1,"inconclusive: 25.1 µM [inhibitor, single point]",
O=C(O)c1ccccc1NS(=O)(=O)c1ccc(NNC(=S)Nc2ccc(OC(F)F)cc2)c([N+](=O)[O-])c1,"inconclusive: 1.12 µM [inhibitor, partial curve, poor fit]",
COC(=O)c1cc(OC)c(OC)cc1NCC(=O)Nc1cccc(C(F)(F)F)c1,"inconclusive: 0.891 µM [inhibitor, full curve]",
Cc1ccc(-c2csc3nc(C)n(N)c(=O)c23)o1,"inconclusive: 0.141 µM [inhibitor, full curve, poor fit]",
CC[C@H](C)C(N)C(=O)O (some centres not stated),inactive,
Cc1cc(-c2n[nH]c(=S)n2/N=C/c2ccc(Br)s2)n[nH]1,"inconclusive: 10 µM [inhibitor, partial curve]",
